The results in this text go back to the supplement of paper PMC6411743.

± gives the standard deviation of the averaged measurements. Some of the results follow.

This assay has as its target T1, UniProt Q8NHP6 and related entries.
T1 sequence (whole entry): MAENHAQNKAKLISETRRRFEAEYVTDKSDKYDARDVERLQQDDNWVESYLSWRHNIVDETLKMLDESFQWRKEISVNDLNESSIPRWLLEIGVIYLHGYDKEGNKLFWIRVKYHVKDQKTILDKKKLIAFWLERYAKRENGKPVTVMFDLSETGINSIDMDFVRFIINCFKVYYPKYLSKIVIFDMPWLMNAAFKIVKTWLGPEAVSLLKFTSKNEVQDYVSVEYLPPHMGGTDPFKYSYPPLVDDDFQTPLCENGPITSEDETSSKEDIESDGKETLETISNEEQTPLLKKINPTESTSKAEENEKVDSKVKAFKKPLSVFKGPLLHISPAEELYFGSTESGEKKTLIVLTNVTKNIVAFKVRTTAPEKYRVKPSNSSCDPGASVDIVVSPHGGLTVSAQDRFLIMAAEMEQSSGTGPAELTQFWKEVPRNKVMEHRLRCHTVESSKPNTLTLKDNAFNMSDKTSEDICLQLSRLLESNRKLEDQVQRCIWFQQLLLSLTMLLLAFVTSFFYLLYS
In words: NP40-soluble protein abundance relative to vehicle (solubility fold change) (ratio); higher = more soluble protein in presence of GTP. Here is the method:
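Solubility proteome profiling in Jurkat crude lysate. Lysate was treated with Mg-GTP (0.1-10 mM) for 10 min at room temperature and 3 min at 37 °C, then solubilised with 0.8% NP40 and benzonase, followed by ultracentrifugation. Proteins were quantified by TMT10 LC-MS/MS; the value is the NP40-soluble abundance relative to the NP40-processed vehicle, from 3 independent experiments.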

As to `Nc1nc2c(ncn2[C@@H]2O[C@H](COP(=O)(O)OP(=O)(O)OP(=O)(O)O)[C@@H](O)[C@H]2O)c(=O)[nH]1` [guanosine triphosphate], the NP40-soluble protein abundance (concentration: 0.1mM) was determined as 0.986 ± 0.035; the NP40-soluble protein abundance (concentration: 0.5mM) is 0.9742 ± 0.0083; the NP40-soluble protein abundance (concentration: 1mM) came to 0.917 ± 0.035; the NP40-soluble protein abundance (concentration: 2mM) is 0.944 ± 0.044; the NP40-soluble protein abundance (concentration: 4mM) turned out to be 0.909 ± 0.029; the NP40-soluble protein abundance (concentration: 6mM) was 0.905 ± 0.018. For the same molecule, the NP40-soluble protein abundance reads like this: (concentration: 8mM) 0.85 ± 0.041; (concentration: 10mM) 0.876 ± 0.087.
